Values from PubChem BioAssay AID1259281 (Sanger Institute, 2017)
Aim: 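Find knock-downs that kill colorectal cancer cells alone or strengthen targeted drugs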 (primary screen). Cells: human COLO678 colorectal cancer cell line. Reagents: siRNA pool against human genes. Challenge: anchor drugs at fixed doses: BYL719 1 µM, cetuximab 5 µg/ml or trametinib 10 nM; DMSO vehicle for the siRNA-alone arm. Measurement: 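Cell viability compared with non-targeting pool wells, averaged over replicates; knock-down-alone effect also as robust z-score; synergy scores set knock-down plus drug against expected joint effect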. Reading the numbers: robust z-score, siRNA alone: higher = more viable cells; strongly negative means essential; viability, siRNA alone: higher = more surviving cells. Units: viability, siRNA alone in fraction of control. Active means: 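Called essential (knock-down alone) if knock-down by itself drops cell number to a robust z-score under -3; all others no change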. Meaning of the calls: active = essential (knock-down alone); inactive = no change.
The deposit covers 794 reagents; this is a part drawn at random. 22 of them (2.8%) were called active. 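Calls rest on knock-down alone only; drug synergy scores play no part in them.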 Viability is capped at 1. Further read-outs or replicates are left out here. Not stated in the record: the amount of reagent, the time to read-out.

PRKDC (protein kinase, DNA-activated, catalytic subunit): robust z-score, siRNA alone = -0.202; viability, siRNA alone = 0.979; activity call = inactive
AK1 (adenylate kinase 1): robust z-score, siRNA alone = -0.273; viability, siRNA alone = 0.976; activity call = inactive
NIM1K (NIM1 serine/threonine protein kinase): robust z-score, siRNA alone = -1.71; viability, siRNA alone = 0.931; activity call = inactive
PRKAB1 (protein kinase AMP-activated non-catalytic subunit beta 1): robust z-score, siRNA alone = 0.473; viability, siRNA alone = 1; activity call = inactive
HK1 (hexokinase 1): robust z-score, siRNA alone = 0.425; viability, siRNA alone = 0.998; activity call = inactive
PRKCSH (PRKCSH beta subunit of glucosidase II): robust z-score, siRNA alone = 0.473; viability, siRNA alone = 1; activity call = inactive
CTNNB1 (catenin beta 1): robust z-score, siRNA alone = -3.95; viability, siRNA alone = 0.86; activity call = active
STK24 (serine/threonine kinase 24): robust z-score, siRNA alone = 0.473; viability, siRNA alone = 1; activity call = inactive
PFKM (phosphofructokinase, muscle): robust z-score, siRNA alone = -0.585; viability, siRNA alone = 0.966; activity call = inactive
MOK (MOK protein kinase): robust z-score, siRNA alone = 0.473; viability, siRNA alone = 1; activity call = inactive
FN3KRP (fructosamine 3 kinase related protein): robust z-score, siRNA alone = 0.473; viability, siRNA alone = 1; activity call = inactive
CAMK2D (calcium/calmodulin dependent protein kinase II delta): robust z-score, siRNA alone = 0.473; viability, siRNA alone = 1; activity call = inactive
